Source: doi:10.1101/335232
Results are given in words; binding and its absence hold for the method and conditions named. Some entries that bind do so weakly or less than the wild type.

The chains behind the UniProt entries cited, without tags or fusion partners. Residues count along the entry.
UniProt P05090, 21-189: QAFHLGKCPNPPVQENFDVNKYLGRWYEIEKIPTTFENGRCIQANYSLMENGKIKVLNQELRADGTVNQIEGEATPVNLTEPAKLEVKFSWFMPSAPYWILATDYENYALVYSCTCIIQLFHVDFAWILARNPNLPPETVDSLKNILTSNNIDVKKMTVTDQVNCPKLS

Assays:
[1] = target: Human apolipoprotein-D (apoD) in cerebrospinal fluid (human) (UniProt P05090); experiment: native gel or EMSA
[2] = target: Human apolipoprotein-D (apoD) in cerebrospinal fluid (human) (UniProt P05090); experiment: SEC

binding [1]: binds
binding [2]: binds
Substance: Human apolipoprotein-D (apoD) in cerebrospinal fluid (from UniProt P05090 21-189)
